Reference: publication PMC10993188, “RAD51 separation of function mutation disables replication fork maintenance but preserves DSB repair”
Results are given in words; binding and its absence hold for the method and conditions named. For part of these data: In cells and extracts the contact can be indirect. For part of these data: Tags and fused reporters may be left off the sequences shown. Some binding calls cover weakened binding; strength is not graded here. Each block holds one molecule with its values, some of them ahead of it.

Amino acid sequences for entries named in this document (tags omitted). A change or cut given only in a name is not applied to a line headed by its entry.
UniProt Q08297: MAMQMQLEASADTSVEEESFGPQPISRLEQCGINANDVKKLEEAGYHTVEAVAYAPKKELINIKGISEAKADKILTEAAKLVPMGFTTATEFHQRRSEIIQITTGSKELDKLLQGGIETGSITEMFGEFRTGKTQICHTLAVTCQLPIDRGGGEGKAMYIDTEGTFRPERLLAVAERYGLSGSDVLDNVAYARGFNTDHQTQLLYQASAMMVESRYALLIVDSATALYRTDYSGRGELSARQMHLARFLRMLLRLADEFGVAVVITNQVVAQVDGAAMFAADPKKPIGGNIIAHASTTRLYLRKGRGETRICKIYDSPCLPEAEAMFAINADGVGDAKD
UniProt Q06609: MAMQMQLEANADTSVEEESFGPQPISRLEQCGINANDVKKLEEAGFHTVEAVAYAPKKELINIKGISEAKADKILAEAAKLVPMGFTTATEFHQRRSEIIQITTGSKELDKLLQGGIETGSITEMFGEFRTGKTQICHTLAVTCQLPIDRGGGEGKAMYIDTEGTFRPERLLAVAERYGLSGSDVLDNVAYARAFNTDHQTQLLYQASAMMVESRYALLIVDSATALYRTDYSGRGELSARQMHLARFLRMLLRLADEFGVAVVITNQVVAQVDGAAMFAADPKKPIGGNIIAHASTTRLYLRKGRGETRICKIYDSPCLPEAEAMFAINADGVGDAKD

What was measured:
[1] = molecular target: pGBKT7-mRad51 (mouse Rad51) (mouse) (UniProt Q08297); assay: two-hybrid; pGAD-RAD51 in PJ69-4α mated with PJ69-4A carrying pGBKT7 or pGBT9 fusions; growth on SC-Trp-Leu-His with 30 mM 3-AT, 30°C
[2] = molecular target: Strep II human Rad51-S181P (human) (UniProt Q06609); assay: co-IP; Strep II-RAD51 variants and 3xFlag-BRC3 or 3xFlag-Ex27 co-transfected in HEK293T; lysate in buffer X (100 mM Tris-HCl pH 8.5, 250 mM NaCl, 1 mM EDTA, 1% NP-40) on Streptactin Sepharose 1 hr at 4°C; immunoblot

- binding [1]: binds
Molecule: pGAD-hRAD51 (human Rad51), wild type (from UniProt Q06609 1-339)

- binding [1]: binds
Molecule: pGAD-rad51 S181P (human RAD51 S181P) (from UniProt Q06609 1-339)

- binding [2]: no binding
B1: 3XFlag-hBRCA2 Ex27 (domain or fragment)
chain: ALDFLSRLPLPPPVSPICTFVSPAAQKAFQPPRSCG
